The same purity stands for every peptide and may come from a single statement. Some peptides are written in HELM: one residue between dots, names in brackets for other building blocks, links after the first $.

The series in a line: general procedure: Fmoc solid-phase peptide synthesis; Rink amide resin (Polystyrene AM RAM; 0.69 mmol/g); HATU/DIPEA. The settings on record: for final purity (method not given): LC-MS.

In the case of OTK^8[Aoa-FDG], under “conjugation step”, the conjugation yield came out at 85% and the “final purity (method not given)” value is greater than 95%.
As for “PEPTIDE1{C.Y.I.Q.N.C.P.[Lys(Aoa-FBA)].G.[am]}$PEPTIDE1,PEPTIDE1,1:R3-6:R3$$$V2.0”, for the setting “late stage modification step”, the step yield came out at 100% and the “final purity (method not given)” value is recorded as greater than 95%.
“PEPTIDE1{[Mpr].Y.I.Q.N.C.P.[Lys(4FBz)].G.[am]}$PEPTIDE1,PEPTIDE1,1:R3-6:R3$$$V2.0”: the “final purity (method not given)” value (late stage modification step) is greater than 95%.

Values taken from PMC12589438 (Communications Chemistry, 2025).
